Ends that are not written are not given here.

We go through 3 substances from PMC8944596, “Determination of the Relationships between the Chemical Structure and Antimicrobial Activity of a GAPDH-Related Fish Antimicrobial Peptide and Analogs Thereof” (Antibiotics, 2022).

This data set in a line: Circular dichroism, secondary structure contents (CONTIN). The class given is physicochemical. The note with it: CD, 25 °C; for Secondary Structure Contents, Unrd (unordered, random coils), PB (10 mM) / Secondary Structure Contents, α-Helix, PB (10 mM) / Secondary Structure Contents, β-Strands, PB (10 mM): 10 mM PB pH 7.2, peptide 0.5 mg/mL; for Secondary Structure Contents, Unrd, TFE 25% / Secondary Structure Contents, α-Helix, TFE 25% / Secondary Structure Contents, β-Strands, TFE 25%: 25% (v/v) TFE/PB; for Secondary Structure Contents, Unrd, TFE 25% / Secondary Structure Contents, α-Helix, TFE 25% / Secondary Structure Contents, β-Strands, TFE 25% / Secondary Structure Contents, Unrd, TFE 50% / Secondary Structure Contents, α-Helix, TFE 50% / Secondary Structure Contents, β-Strands, TFE 50% / Secondary Structure Contents, Unrd, TFE 75% / Secondary Structure Contents, α-Helix, TFE 75% / Secondary Structure Contents, β-Strands, TFE 75%: 0.5 mg/mL; for Secondary Structure Contents, Unrd, TFE 50% / Secondary Structure Contents, α-Helix, TFE 50% / Secondary Structure Contents, β-Strands, TFE 50%: 50% (v/v) TFE/PB; for Secondary Structure Contents, Unrd, TFE 75% / Secondary Structure Contents, α-Helix, TFE 75% / Secondary Structure Contents, β-Strands, TFE 75%: 75% (v/v) TFE/PB.

“Analog 2: N-terminal segment of SJGAP (VKVGINGFGRIG)”: the “Secondary Structure Contents, Unrd (unordered, random coils), PB (10 mM)” value (“Secondary Structure Contents, Unrd … (10 mM)” below) came out at 35%; the “Secondary Structure Contents, α-Helix, PB (10 mM)” value amounted to 6%; the “Secondary Structure Contents, β-Strands, PB (10 mM)” value is on record as 44%; the “Secondary Structure Contents, Unrd, TFE 25%” value was 33%. Moreover, the “Secondary Structure Contents, α-Helix, TFE 25%” value amounted to 5%; the “Secondary Structure Contents, β-Strands, TFE 25%” value worked out at 40%; the “Secondary Structure Contents, Unrd, TFE 50%” value is listed as 34%; the “Secondary Structure Contents, α-Helix, TFE 50%” value was 4%. Further, the “Secondary Structure Contents, β-Strands, TFE 50%” value is 41%; the “Secondary Structure Contents, Unrd, TFE 75%” value is 35%; the “Secondary Structure Contents, α-Helix, TFE 75%” value was 5%; the “Secondary Structure Contents, β-Strands, TFE 75%” value is reported as 38%.
In the case of “Analog 3: Middle segment of SJGAP (IGRLVTRAAFHG)”, the “Secondary Structure Contents, Unrd … (10 mM)” value was 39%; the “Secondary Structure Contents, α-Helix, PB (10 mM)” value was determined as 5%; the “Secondary Structure Contents, β-Strands, PB (10 mM)” value is recorded as 33%; the “Secondary Structure Contents, Unrd, TFE 25%” value was determined as 35%. Moreover, the “Secondary Structure Contents, α-Helix, TFE 25%” value came out at 6%; the “Secondary Structure Contents, β-Strands, TFE 25%” value was 37%; the “Secondary Structure Contents, Unrd, TFE 50%” value is 30%; the “Secondary Structure Contents, α-Helix, TFE 50%” value is 15%. Moreover, the “Secondary Structure Contents, β-Strands, TFE 50%” value was 33%; the “Secondary Structure Contents, Unrd, TFE 75%” value was found to be 31%; the “Secondary Structure Contents, α-Helix, TFE 75%” value was found to be 18%; the “Secondary Structure Contents, β-Strands, TFE 75%” value was determined as 29%.
Turning to HGKKVEIVAIND [Analog 4], the “Secondary Structure Contents, Unrd … (10 mM)” value was 39%; the “Secondary Structure Contents, α-Helix, PB (10 mM)” value was 6%; the “Secondary Structure Contents, β-Strands, PB (10 mM)” value amounted to 32%; the “Secondary Structure Contents, Unrd, TFE 25%” value stood at 37%. Also, the “Secondary Structure Contents, α-Helix, TFE 25%” value is 5%; the “Secondary Structure Contents, β-Strands, TFE 25%” value stood at 32%; the “Secondary Structure Contents, Unrd, TFE 50%” value was 35%; the “Secondary Structure Contents, α-Helix, TFE 50%” value is 4%. Besides, the “Secondary Structure Contents, β-Strands, TFE 50%” value worked out at 39%; the “Secondary Structure Contents, Unrd, TFE 75%” value was 33%; the “Secondary Structure Contents, α-Helix, TFE 75%” value was 6%; the “Secondary Structure Contents, β-Strands, TFE 75%” value worked out at 34%.
